According to patent US8349851B2, “JAK kinase modulating compounds and methods of use thereof” (Ambit Biosciences Corp., priority 2009, dated 2013):
Where a name gives a salt, the structure may show the parent alone.

Test system: 321 distinct kinases
Test: Kinase selectivity score from competition binding panel
Conditions: kinases with inhibition of 90% or greater divided by 321 distinct kinases tested

SMILES | S Score (at 10 μM)
OC(c1ccc(F)cc1)c1nc(Nc2cc[nH]n2)c2ccccc2n1 (racemic) [Example 6, (R,S)-(4-(1H-pyrazol-3-ylamino)quinazolin-2-yl)(4-fluorophenyl)methanol] | A (A ≦ 0.3)
Fc1ccc(C(F)c2nc(Nc3cc[nH]n3)c3ccccc3n2)cc1 (racemic) [Example 7, (R,S)-2-(fluoro(4-fluorophenyl)methyl)-N-(1H-pyrazol-3-yl)quinazolin-4-amine] | A (A ≦ 0.3)
Cc1cc(Nc2nc(C(O)c3ccc(F)cc3)nc3ccccc23)n[nH]1 (racemic) [Example 12, (R,S)-(4-fluorophenyl)(4-(5-methyl-1H-pyrazol-3-ylamino)quinazolin-2-yl)methanol hydrochloride] | A (A ≦ 0.3)
COC(c1ccc(F)cc1)c1nc(Nc2cc(C)[nH]n2)c2ccccc2n1 (racemic) [Example 13, (R,S)-2-((4-fluorophenyl)(methoxy)methyl)-N-(5-methyl-1H-pyrazol-3-yl)quinazolin-4-amine] | A (A ≦ 0.3)
Cc1cc(Nc2nc(C(N)c3ccc(F)cc3)nc3ccccc23)n[nH]1 (racemic) [Example 14, (R,S)-2-(amino(4-fluorophenyl)methyl)-N-(5-methyl-1H-pyrazol-3-yl)quinazolin-4-amine] | A (A ≦ 0.3)
N#Cc1cc(Nc2nc(C(O)c3ccc(F)cc3)nc3ccccc23)n[nH]1 (racemic) [Example 15, (R,S)-3-(2-((4-fluorophenyl)(hydroxy)methyl)quinazolin-4-ylamino)-1H-pyrazole-5-carbonitrile] | A (A ≦ 0.3)
Cc1cc(Nc2nc(C(O)c3ccc(F)cc3)nc3cccc(F)c23)n[nH]1 (racemic) [Example 16, (R,S)-(5-fluoro-4-(5-methyl-1H-pyrazol-3-ylamino)quinazolin-2-yl)(4-fluorophenyl)methanol] | A (A ≦ 0.3)
Cc1cc(Nc2nc(C(O)c3ccc(F)cc3)nc3cc(C(F)(F)F)ccc23)n[nH]1 (racemic) [Example 18, (R,S)-(4-fluorophenyl)(4-(5-methyl-1H-pyrazol-3-ylamino)-7-(trifluoromethyl)quinazolin-2-yl)methanol] | A (A ≦ 0.3)
OC(c1ccc(F)cc1)c1nc(Nc2cc[nH]n2)c2ccc(I)cc2n1 (racemic) [Example 23, (R,S)-(4-(1H-pyrazol-3-ylamino)-7-iodoquinazolin-2-yl)(4-fluorophenyl)methanol] | A (A ≦ 0.3)
Cc1ccc2c(Nc3cc(C)[nH]n3)nc(C(O)c3ccc(F)cc3)nc2c1 (racemic) [Example 25, (R,S)-(4-fluorophenyl)(7-methyl-4-(5-methyl-1H-pyrazol-3-ylamino)quinazolin-2-yl)methanol] | A (A ≦ 0.3)
COc1ccc2c(Nc3cc[nH]n3)nc(C(O)c3ccc(F)cc3)nc2c1 (racemic) [Example 29, (R,S)-(4-(1H-pyrazol-3-ylamino)-7-methoxyquinazolin-2-yl)(4-fluorophenyl)methanol] | A (A ≦ 0.3)
COc1ccc2c(Nc3cc(C)[nH]n3)nc(C(O)c3ccc(F)cc3)nc2c1 (racemic) [Example 31, (R,S)-(4-fluorophenyl)(7-methoxy-4-(5-methyl-1H-pyrazol-3-ylamino)quinazolin-2-yl)methanol] | A (A ≦ 0.3)
Cc1cc(Nc2nc(C(O)c3ccc(F)cc3)nc3cc(O)ccc23)n[nH]1 (racemic) [Example 36, (R,S)-2-((4-fluorophenyl)(hydroxy)methyl)-4-(5-methyl-1H-pyrazol-3-ylamino)quinazolin-7-ol] | A (A ≦ 0.3)
Cc1cc(Nc2nc(C(O)c3ccc(F)cc3)nc3cc(OCCN4CCOCC4)ccc23)n[nH]1 (racemic) [Example 38, (R,S)-(4-fluorophenyl)(4-(5-methyl-1H-pyrazol-3-ylamino)-7-(2-morpholinoethoxy)quinazolin-2-yl)methanol] | C (0.4 < C ≦ 0.5)
